Reference: article PMC3905862
Results are given in words; binding and its absence hold for the method and conditions named. Binding seen in cells or lysates may run through a third protein. Some entries that bind do so weakly or less than the wild type.

Protein sequences, listed by entry. Tags and fused reporters are not part of them.
UniProt Q8NDV7: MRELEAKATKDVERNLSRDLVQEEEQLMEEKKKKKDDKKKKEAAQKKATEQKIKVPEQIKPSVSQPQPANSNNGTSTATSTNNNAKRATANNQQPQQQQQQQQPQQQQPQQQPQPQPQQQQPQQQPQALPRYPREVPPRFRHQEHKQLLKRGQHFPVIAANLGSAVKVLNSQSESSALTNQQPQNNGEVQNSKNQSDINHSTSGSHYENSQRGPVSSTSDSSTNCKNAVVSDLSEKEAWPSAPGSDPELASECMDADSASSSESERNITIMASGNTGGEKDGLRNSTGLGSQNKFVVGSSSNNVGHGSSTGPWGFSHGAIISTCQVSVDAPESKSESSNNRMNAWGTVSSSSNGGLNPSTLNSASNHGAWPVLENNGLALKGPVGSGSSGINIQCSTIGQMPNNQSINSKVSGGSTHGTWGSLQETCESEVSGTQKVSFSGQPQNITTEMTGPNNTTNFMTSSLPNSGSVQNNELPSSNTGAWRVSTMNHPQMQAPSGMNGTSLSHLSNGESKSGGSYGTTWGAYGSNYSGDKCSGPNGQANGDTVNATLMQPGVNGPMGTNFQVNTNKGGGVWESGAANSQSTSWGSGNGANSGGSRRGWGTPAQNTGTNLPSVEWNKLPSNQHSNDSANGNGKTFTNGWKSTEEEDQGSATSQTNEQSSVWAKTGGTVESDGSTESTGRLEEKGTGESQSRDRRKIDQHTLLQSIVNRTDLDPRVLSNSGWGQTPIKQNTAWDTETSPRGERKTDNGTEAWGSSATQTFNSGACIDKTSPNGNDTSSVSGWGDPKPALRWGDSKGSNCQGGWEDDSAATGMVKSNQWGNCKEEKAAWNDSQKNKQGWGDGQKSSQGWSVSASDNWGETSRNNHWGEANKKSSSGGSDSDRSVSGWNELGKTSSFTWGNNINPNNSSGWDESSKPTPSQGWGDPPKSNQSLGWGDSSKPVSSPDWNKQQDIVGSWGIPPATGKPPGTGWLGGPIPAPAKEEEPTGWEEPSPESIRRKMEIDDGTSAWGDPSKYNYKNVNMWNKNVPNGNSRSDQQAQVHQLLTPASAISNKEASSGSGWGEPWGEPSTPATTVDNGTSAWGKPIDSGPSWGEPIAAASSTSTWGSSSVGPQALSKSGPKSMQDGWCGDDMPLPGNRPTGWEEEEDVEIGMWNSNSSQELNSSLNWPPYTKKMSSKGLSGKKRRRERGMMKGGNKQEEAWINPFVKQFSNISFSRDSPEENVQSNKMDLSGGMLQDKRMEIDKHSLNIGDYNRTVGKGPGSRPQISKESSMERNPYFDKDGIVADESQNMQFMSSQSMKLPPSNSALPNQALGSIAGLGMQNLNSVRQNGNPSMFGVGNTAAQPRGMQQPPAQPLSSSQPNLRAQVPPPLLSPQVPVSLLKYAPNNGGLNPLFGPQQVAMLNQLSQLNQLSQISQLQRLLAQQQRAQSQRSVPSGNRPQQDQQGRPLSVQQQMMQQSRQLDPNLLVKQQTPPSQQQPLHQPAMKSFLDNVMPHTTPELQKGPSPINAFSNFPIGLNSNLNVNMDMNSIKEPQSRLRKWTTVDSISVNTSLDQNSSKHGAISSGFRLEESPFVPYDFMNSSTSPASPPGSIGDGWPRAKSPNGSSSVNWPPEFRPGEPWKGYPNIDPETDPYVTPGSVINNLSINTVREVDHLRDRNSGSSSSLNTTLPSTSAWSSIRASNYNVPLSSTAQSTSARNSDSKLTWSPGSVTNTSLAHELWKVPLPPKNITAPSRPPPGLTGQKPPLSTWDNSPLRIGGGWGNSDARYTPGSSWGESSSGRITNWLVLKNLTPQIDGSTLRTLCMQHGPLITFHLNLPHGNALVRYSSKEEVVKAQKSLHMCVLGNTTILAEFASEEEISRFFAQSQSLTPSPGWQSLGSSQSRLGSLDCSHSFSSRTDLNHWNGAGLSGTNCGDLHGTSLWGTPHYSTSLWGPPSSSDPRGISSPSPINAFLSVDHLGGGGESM
UniProt Q9UKV8: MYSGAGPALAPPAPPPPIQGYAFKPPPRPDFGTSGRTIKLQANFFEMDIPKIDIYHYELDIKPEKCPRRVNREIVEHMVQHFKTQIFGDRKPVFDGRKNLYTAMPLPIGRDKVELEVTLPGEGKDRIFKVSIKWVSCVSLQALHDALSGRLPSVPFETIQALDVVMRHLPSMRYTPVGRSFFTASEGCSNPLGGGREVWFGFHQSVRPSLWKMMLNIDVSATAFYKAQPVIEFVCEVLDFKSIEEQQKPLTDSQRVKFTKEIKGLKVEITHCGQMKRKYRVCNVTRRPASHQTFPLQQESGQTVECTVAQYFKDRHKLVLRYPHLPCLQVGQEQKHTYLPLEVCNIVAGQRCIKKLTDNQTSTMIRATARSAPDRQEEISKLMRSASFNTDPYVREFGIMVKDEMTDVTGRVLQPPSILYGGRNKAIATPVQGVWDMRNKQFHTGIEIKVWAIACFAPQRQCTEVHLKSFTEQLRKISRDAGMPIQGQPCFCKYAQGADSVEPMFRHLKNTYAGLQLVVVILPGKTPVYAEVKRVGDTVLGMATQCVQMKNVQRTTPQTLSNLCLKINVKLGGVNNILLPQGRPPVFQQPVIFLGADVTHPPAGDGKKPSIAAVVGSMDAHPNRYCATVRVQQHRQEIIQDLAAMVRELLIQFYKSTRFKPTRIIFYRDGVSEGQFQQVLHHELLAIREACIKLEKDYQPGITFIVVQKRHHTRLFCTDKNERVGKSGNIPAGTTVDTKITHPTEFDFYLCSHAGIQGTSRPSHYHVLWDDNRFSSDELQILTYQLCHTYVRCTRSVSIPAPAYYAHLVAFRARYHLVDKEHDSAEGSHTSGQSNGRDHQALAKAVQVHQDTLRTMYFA

Tests used:
[1] = molecular target: GW182 (TNRC6A) (human (endogenous in A549)) (UniProt Q8NDV7); assay: co-IP; A549 nuclear extract (0.5-1 mg total protein) with 1.5 ug anti-AGO2 or anti-GW182 antibody on Protein G Plus/Protein A resin, 4°C for 4 h; washed 4x with 20 mM Tris pH 7.5, 0.4 M NaCl, 2 mM MgCl2, 0.05% NP-40, 0.025% SDS; western blot with anti-AGO2 or anti-GW182
[2] = molecular target: argonaute-2 (AGO2) (human (endogenous in A549)) (UniProt Q9UKV8); assay: as above

binding [1]	binding [2]	Substance
binds	–	argonaute-2 (AGO2) (from UniProt Q9UKV8 1-859)
–	binds	GW182 (TNRC6A) (from UniProt Q8NDV7 1-1962)
